# From PubChem BioAssay AID1259415 (National Center for Advancing Translational Sciences (NCATS), 2018)
# Where “and” joins values, the source holds several entries; their conditions need not be identical. Equal values may be shown once. The campaign covered roughly 410,000 compounds. About 18,000 (4.4%) were called active. The inconclusive results got no clear call from the source; some entries with a clear call stand among them for comparison. Cut-off read from the data, not from the text of the source: active = activity change below about -60%; inconclusive = no clear call, values can overlap the other calls; inactive = above about -39%.
# Experiment: qHTS Assay for inhibitors of the human cytomegalovirus (HCMV)
# Conditions: HFF cells, HCMV-luciferase reporter, 72 h; at 57.5 µM; stronger effect = lower value
# How it was run: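 Human foreskin fibroblasts infected with luciferase-reporter HCMV at MOI 1 PFU/cell, compounds at two doses. Luciferase measured 72 h post infection; normalized to buffer-only basal and Salinomycin (10uM) controls.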
# % is set by controls: 0 for no effect and ±100 for the full control effect.
row,SMILES,"activity change, negative = inhibition"
1,O=C(COc1ccc(S(=O)(=O)Nc2ccccc2)cc1)NCc1ccncc1,inconclusive: -40.6%
2,Oc1cccc(-c2nc(-c3cccs3)c(-c3cccs3)[nH]2)c1,inactive: 33%
3,CC(=O)C(Sc1ccc2nnc(-c3ccc(F)cc3)n2n1)C(C)=O,inconclusive: -46.2%
4,COc1ccc(/C=C/C(=O)NC(=S)NCc2ccccc2)cc1OC,inconclusive: -44.9%
5,COc1ccc(NC(=O)CN2CCC3(O)CCCCC3C2c2cc(OC)ccc2OC)cc1 (stereo unspecified),inactive: 1.73%
6,Cc1c(F)cccc1NS(=O)(=O)c1ccc2c(c1)c(=O)n(C)c(=O)n2C,inconclusive: -45.1%
7,O=C1c2ccccc2C(=O)N1N=Cc1ccc2c(c1)OCO2,inactive: -2.87%
8,O=C(c1cc(-c2cccnc2)nc2ccccc12)N1CCCc2ccccc21,inconclusive: -41.6%
9,Cc1cccc(N2C(=O)CN(Cc3ccccc3)C2=S)c1,inactive: -12.4%
10,Cc1nc(N2CCN(S(=O)(=O)c3ccccc3C#N)CC2)c2c(-c3ccccc3)csc2n1,active: -73.8%
11,Cc1nc(C)c(C(=O)Nc2ncc([N+](=O)[O-])s2)o1,inconclusive: -40.1%
12,Cc1ccc(-n2nc(C)c3c2OC(N)=C(C#N)C3c2ccccc2F)cc1 (stereo unspecified),inactive: 26.8%
13,CC1CCCCN1CCCNC(=O)C1CCCN(c2ncnc3c2nc2n3CCCCC2)C1 (stereo unspecified),inconclusive: -49.5%
14,COc1cc2c(cc1OC)C(C)N(CC(=O)Nc1ccc(C)c(S(=O)(=O)N3CCOCC3)c1)CC2 (stereo unspecified),inconclusive: -43.4%
15,Cc1ccc(NC(=O)c2cc(=O)[nH]c3ccc(S(=O)(=O)N4CCOCC4)cc23)cc1,inconclusive: -41.3%
16,CSc1cccc(NC(=O)C2CCCN(S(=O)(=O)c3ccc4c(c3)CCCN4C(C)=O)C2)c1 (stereo unspecified),inconclusive: -48.1%
17,CCCCn1c(=O)n(CC(O)c2ccccc2)c(=O)c2c1ncn2C1CCCC1 (stereo unspecified),inconclusive: -42.1%
18,O=C(Nc1ccc(Oc2cccnc2)cc1)c1ccccc1Cl,inconclusive: -55.1%
19,CCc1nn2c(=O)cc(COC(=O)c3ccccc3NC(=O)c3ccc(C(C)(C)C)cc3)nc2s1,inconclusive: -57.6%
20,O=C(NCCCN1CCN(c2ccccc2)CC1)c1ccc2nc(CCc3ccccc3)oc2c1,inconclusive: -43.6%
21,C=CCn1c(=O)/c(=C/c2ccc(O)cc2)s/c1=C(/C#N)c1nnc2n1CCCCC2,inconclusive: -40.3%
22,COc1ccccc1-c1sc2cc3c(cc2c1-c1ccc(OCCN2CCCCC2)cc1)OCO3,inactive: -32.7%

row,SMILES,"activity change, negative = inhibition"
1,CCC(C)CCN1C(Nc2ccccc2)=NC[C@@H]1Cc1ccccc1 (stereo partly specified),active: -99.7%
2,Cc1nn(Cc2ccccc2Cl)c(C)c1C(=O)N(C)CC(=O)Nc1cccc(F)c1,inconclusive: -41.9%
3,Nc1ccc(Oc2ccc([N+](=O)[O-])cc2[N+](=O)[O-])cc1,inconclusive: -44%
4,CCOc1ccccc1/C=N/Nc1ccnc(=O)[nH]1,active: -98.7%
5,COc1ccc(/C=C/C(=O)OCC(=O)Nc2ccc(Cl)cn2)cc1,inconclusive: -45%
6,COc1ccc(CNC(=O)c2c(O)c3ccccc3n(C)c2=O)cc1OC,inconclusive: -46%
7,O=[N+]([O-])c1ccc(Nc2ccccc2)c2nonc12,inconclusive: -43.6%
8,N#Cc1cc2c(nc1SCC(=O)Nc1sc3c(c1C#N)CCC3)CCCCCC2,inconclusive: -44.9%
9,C=CCNC(=O)CSc1ncc2c(n1)-c1c(csc1SC)CC2,inactive: -23.4%
10,CC1(C)Cc2c(cnn2-c2ccccc2)C(NC(=O)CCc2ccncc2)C1 (stereo unspecified),inconclusive: -40.2%
11,COc1cccc(/C=N/Nc2ncnc(Cl)c2N)c1O,active: -97.1%
12,O=[N+]([O-])c1ccc2nc(-c3ccc(OC(F)F)cc3)cn2c1,inconclusive: -42.5%
13,Oc1ccc2c3c1O[C@H]1c4[nH]c5c(c4CC4(O)C(C2)N(CC2CC2)CCC314)CC1(O)[C@H]2Cc3ccc(O)c4c3[C@@]1(CCN2CC1CC1)C5O4 (stereo partly specified),inconclusive: -47%
14,CCOc1cc(CNc2ccc(S(N)(=O)=O)cc2)cc(Cl)c1OC,inactive: -26.7%
15,S=C(Nc1ccccc1)Nc1cccc(Br)c1,inactive: -33.5%
16,CC(=O)c1c(C)[nH]c(C(=O)Nc2cccc3ccccc23)c1C,inactive: 42.6%
17,COc1ccccc1NS(=O)(=O)c1ccc(C)c(NC(=O)c2ccc(S(=O)(=O)N3CCCCCC3)cc2)c1,active: -69.3%
18,Cc1onc(-c2ccccc2Cl)c1C(=O)Nc1ccccc1C(=O)NC(C)C,inconclusive: -47.3%
19,CCCC1=Nc2cc(C(=O)NCCCOC(C)C)ccc2Sc2ccccc21,inconclusive: -46.9%
20,O=C(O)c1ccc(-c2noc(-c3cccc(Cl)c3)n2)cc1,inactive: 94.4%
21,CCN(CC(=O)Nc1c(F)cccc1F)C(=O)C1CCCO1 (stereo unspecified),inactive: 35.9%
22,Cc1nc2c(cc1C#N)C(=O)c1ccccc1-2,inconclusive: -52.9%

row,SMILES,"activity change, negative = inhibition"
1,O=C(CN1CCCN(Cc2cccc(F)c2)S1(=O)=O)Nc1ccc2c(c1)OCCO2,inactive: -12.3%
2,O=C(O)c1ccc(-c2nc(-c3ccccc3)cs2)cc1,inactive: 30%
3,C=C(C)Cn1c(SCC(=O)Nc2cccc(C)c2)nc2sc3c(c2c1=O)CCCC3,inactive: 6.16%
4,CCN1CCN(c2nc3c(c(=O)[nH]c(=O)n3C)n2CCCc2ccccc2)CC1,inconclusive: -47.4%
5,CCn1cc(/C=C(\NC(=O)c2ccccc2)C(=O)NCCCn2ccnc2)c2ccccc21,inconclusive: -58.6%
6,O=C(COC(=O)c1ccc2c(c1Cl)C(=O)c1ccccc1C2=O)NC1CC1,inconclusive: -55.6%
7,Cc1cc(NO)c(C(C)C)cc1N=O,active: -64.6%
8,CC1=C(C(=O)N(C(C)C)C(C)C)CC(CC(=O)NCCCCc2ccccc2)C(=O)N1CCCN1CCCC1=O (stereo unspecified),inactive: -1.1%
9,COCCN1C(=O)/C(=C/c2ccc(OCc3ccc(C(=O)O)cc3)c(OC)c2)SC1=Nc1ccccc1,inconclusive: -47.1%
10,CC(C)NS(=O)(=O)c1ccc(NC(=O)C(C)Oc2ccc(C(=O)c3ccccc3)cc2)cc1 (stereo unspecified),inactive: 12%
11,Cc1ccc(-c2c(C(=O)N(C)Cc3ccccc3)oc(=O)c3ccccc23)cc1,active: -65.2% and inconclusive: -46%
12,O=c1cc(-c2cccc(F)c2)[nH]c2ccccc12,active: -76.8%
13,Cc1ccc(NC(=O)COC(=O)c2cc(=O)c3cc(F)ccc3o2)cc1,inactive: -4.13%
14,CCCCCCCCCC(=O)NNC(=O)c1c(O)c2ccccc2n(CCC)c1=O,inconclusive: -47%
15,Cc1cc2c(cc(C(=O)OC(C(=O)NC3CCCCC3)C(C)C)n2C)o1 (stereo unspecified),inconclusive: -60%
16,COc1cc2nc(Nc3ccc(C)c(C)c3)nc(N)c2cc1OC,inconclusive: -48.6%
17,COc1cc(/C=N/NC(=O)COc2cccc(F)c2)ccc1OS(=O)(=O)c1ccc(C)cc1,inconclusive: -41.4%
18,C=CCNC(=S)Nc1ccc(Cl)cc1F,inconclusive: -55.3%
19,CN(C)S(=O)(=O)c1ccc(Cl)c(C(=O)Nc2cccc([N+](=O)[O-])c2)c1,active: -64.9%
20,Cc1cccc(C(=O)Oc2c(Br)cc(Br)cc2/C=N/NC(=O)c2ccncc2)c1,active: -71.1%
21,Cc1cnc(NC(=O)c2ccc3c(c2)OCCO3)s1,active: -79.7%
22,CCOC(=O)c1c(NC(=O)Cn2cnc3sc(C)c(-c4ccccc4)c3c2=O)sc(C)c1C,inconclusive: -40.1%

row,SMILES,"activity change, negative = inhibition"
1,CCN(CC)C(=O)Cn1c(=O)n(CC(=O)N2CCCCC2)c(=O)c2sccc21,inconclusive: -48.7%
2,O=C1CSC(c2ccccn2)N1c1ccc2ccccc2c1 (stereo unspecified),inconclusive: -41.7%
3,O=c1c2c(nc3c(-c4ccc(Cl)cc4)c[nH]n13)CCC2,active: -76.6%
4,CC(C)(C)C(=O)Nc1cccc2[nH]ncc12,inactive: -33.1%
5,CCc1ccc(NC(=O)CSc2cn(CC(=O)N3CCOCC3)c3ccccc23)cc1,inconclusive: -40.3%
6,NC(=O)C[C@H](NC(=O)c1ccc(Cl)cc1)C(=O)OCc1ccccc1,inconclusive: -42.1%
7,CC1COc2ccccc2N1C(=O)c1ccc(Cl)cc1 (stereo unspecified),inconclusive: -45.5%
8,COC(=O)C1=C(C)N(Cc2ccccc2C(F)(F)F)C(=NCc2ccc(C(F)(F)F)cc2)NC1CCc1ccccc1 (stereo unspecified),inactive: 38.4%
9,CCOC(=O)CNC(=S)SC,inconclusive: -50.6%
10,CC1(C)Cc2c(sc(NC(=O)c3ccc4c(c3)OCCO4)c2C(N)=O)C(C)(C)N1,inconclusive: -42.4%
11,O=c1[nH]cnc2sc3c(c12)CCCC3,inconclusive: -41.6%
12,Cc1sc2ncnc(N3CCC(C(=O)NNC(=O)COc4ccccc4F)CC3)c2c1C,inactive: -10.1%
13,Cc1ccccc1Cn1c(C)c(C(=O)N(C)Cc2ccc(F)cc2)sc1=O,active: -60.2%
14,CCOc1ccc(C(=O)NNC(=O)CN2C(=O)NC3(CCCC3)C2=O)cc1,active: -102%
15,Cc1c(CCC(=O)NCC(=O)O)c(=O)oc2cc3occ(-c4ccccc4)c3cc12,inconclusive: -42.7%
16,CCOc1cc2[nH]c(=S)n(CCN3CCC(C)CC3)c(=O)c2cc1OCC,inconclusive: -51.3%
17,CCOC(=O)C(CC)(CC)C(=O)/C=C/c1ccc(Br)cc1,active: -106%
18,COC(=O)c1ccc(NC(=O)C2CC(=O)N(c3ccc(C)cc3)C2)cc1 (stereo unspecified),inactive: 79.7%
19,COc1ccc(-c2nccc3[nH]nc(-c4cccc(OC(F)(F)F)c4)c23)cc1OC,inconclusive: -51%
20,c1coc(CNc2ncnc3c2oc2ccccc23)c1,inconclusive: -40.1%

# 22 entries from above, ordered by formula weight, smallest number first:
row,SMILES,"activity change, negative = inhibition"
9,CCOC(=O)CNC(=S)SC,inconclusive: -50.6%
11,O=c1[nH]cnc2sc3c(c12)CCCC3,inconclusive: -41.6%
4,CC(C)(C)C(=O)Nc1cccc2[nH]ncc12,inactive: -33.1%
18,C=CCNC(=S)Nc1ccc(Cl)cc1F,inconclusive: -55.3%
20,c1coc(CNc2ncnc3c2oc2ccccc23)c1,inconclusive: -40.1%
21,Cc1cnc(NC(=O)c2ccc3c(c2)OCCO3)s1,active: -79.7%
7,CC1COc2ccccc2N1C(=O)c1ccc(Cl)cc1 (stereo unspecified),inconclusive: -45.5%
2,O=C1CSC(c2ccccn2)N1c1ccc2ccccc2c1 (stereo unspecified),inconclusive: -41.7%
18,COC(=O)c1ccc(NC(=O)C2CC(=O)N(c3ccc(C)cc3)C2)cc1 (stereo unspecified),inactive: 79.7%
17,CCOC(=O)C(CC)(CC)C(=O)/C=C/c1ccc(Br)cc1,active: -106%
6,NC(=O)C[C@H](NC(=O)c1ccc(Cl)cc1)C(=O)OCc1ccccc1,inconclusive: -42.1%
13,Cc1ccccc1Cn1c(C)c(C(=O)N(C)Cc2ccc(F)cc2)sc1=O,active: -60.2%
16,CCOc1cc2[nH]c(=S)n(CCN3CCC(C)CC3)c(=O)c2cc1OCC,inconclusive: -51.3%
15,Cc1c(CCC(=O)NCC(=O)O)c(=O)oc2cc3occ(-c4ccccc4)c3cc12,inconclusive: -42.7%
1,CCN(CC)C(=O)Cn1c(=O)n(CC(=O)N2CCCCC2)c(=O)c2sccc21,inconclusive: -48.7%
19,COc1ccc(-c2nccc3[nH]nc(-c4cccc(OC(F)(F)F)c4)c23)cc1OC,inconclusive: -51%
10,CC1(C)Cc2c(sc(NC(=O)c3ccc4c(c3)OCCO4)c2C(N)=O)C(C)(C)N1,inconclusive: -42.4%
5,CCc1ccc(NC(=O)CSc2cn(CC(=O)N3CCOCC3)c3ccccc23)cc1,inconclusive: -40.3%
12,Cc1sc2ncnc(N3CCC(C(=O)NNC(=O)COc4ccccc4F)CC3)c2c1C,inactive: -10.1%
22,CCOC(=O)c1c(NC(=O)Cn2cnc3sc(C)c(-c4ccccc4)c3c2=O)sc(C)c1C,inconclusive: -40.1%
20,Cc1cccc(C(=O)Oc2c(Br)cc(Br)cc2/C=N/NC(=O)c2ccncc2)c1,active: -71.1%
8,COC(=O)C1=C(C)N(Cc2ccccc2C(F)(F)F)C(=NCc2ccc(C(F)(F)F)cc2)NC1CCc1ccccc1 (stereo unspecified),inactive: 38.4%
